Measurements published in patent US9409904B2, “Compounds and compositions for use in augmentation of glucose” (YISSUM RESEARCH DEVELOPMENT COMPANY OF THE HEBREW …, priority 2011, dated 2016).
Some results were stated once for a whole list of compounds, not compound by compound.

Columns and labels:
AMPK = assay: Thr172 phosphorylation of AMPK in L6 myotubes, Western blot of whole cell lysates; format: cell-based; conditions: incubation time
Description: The effect of the various derivatives on the rate of glucose uptake in L6 myotubes was investigated. […] The abundance of GLUT1 and GLUT4 in the plasma membranes of L6 myotubes was determined in cells expressing GLUT-1myc or GLUT-4myc, as described before. […] In addition, the effect of compounds on the glucose—stimulated insulin secretion (GSIS) was investigated. Whole cell lysates were prepared as previously described with some minor modifications: the lysis buffer contained 50 mM Tris-HCl, pH 7.5, 1 mM EDTA, 1 mM EGTA, 1 mM Na3VO4, 150 mM NaCl, 50 mM NaF, 10 mM sodium-glycerophosphate, 5 mM sodium pyrophosphate, and 1 mM PMSF, supplemented with 0.1% (v/v) NP-40, 0.1% (v/v) 2-β-mercaptoethanol, and protease inhibitor cocktail (1:100 dilution). The cells were washed by ice-cold PBS, and 1 ml of lysis buffer was then added and incubated at 4° C. for 40 minutes. The resulting cell lysates were centrifuged at 8,700 g×30 minutes at 4° C. and the resulting supernatant fractions were separated and kept at −20° C. until used. Protein content in the supernatant was determined according to Bradford, using a BSA standard dissolved in the same buffer. […] Samples for Western blot analyses of GLUT1 and GLUT4 were prepared as described in [22]. The proteins were separated on 10% SDS-PAGE and Western blot analyses performed using antibodies according to our previously established protocols.

L6 myotubes = assay: [3H]-2-deoxy-D-glucose (dGlc) uptake assay in L6 myotubes; format: cell-based
Description: The effect of the various derivatives on the rate of glucose uptake in L6 myotubes was investigated. […] The abundance of GLUT1 and GLUT4 in the plasma membranes of L6 myotubes was determined in cells expressing GLUT-1myc or GLUT-4myc, as described before. […] In addition, the effect of compounds on the glucose—stimulated insulin secretion (GSIS) was investigated.
L6 myotubes were maintained as described in [21]. All experiments were conducted on fully differentiated myotubes.
The rate of [^3H]dGlc uptake in myotubes, in the absence or presence of insulin, was determined as described in [21]. […] […] The cultures were then rinsed 3 times with PBS at room temperature and incubated with PBS, pH 7.4, containing 0.1 mM dGlc and 1.0 μCi/ml [^3H]dGlc for 5 minutes at room temperature. At the end of the assay, the myotubes were lysed in 0.1% (w/v) SDS in water and taken for liquid scintillation.

Structure (SMILES) | persistence of Thr172 phosphorylation of AMPK (AMPK) | rate of glucose uptake in L6 myotubes (result in words) (L6 myotubes)
CCOc1ccc2nc(S)sc2c1 [Compound 4, 6-ethoxybenzo[d]thiazole-2-thiol, reference compound] | up to 24 hours | 
Oc1nc2ccc(Br)cc2s1 [Compound 15, 6-bromo-2-benzothiazolinone, reference compound] | up to 24 hours | 
CCOc1ccc2nc(SCC(=O)O)sc2c1 [Compound 24, 2-(6-ethoxybenzothiazol-2-ylthio)acetic acid] |  | only the resulting compound 25 was biologically active
CCOc1ccc2nc(SCCC(=O)O)sc2c1 [Compound 25, 3-(6-ethoxybenzothiazol-2-ylthio)propanoic acid] |  | only the resulting compound 25 was biologically active
CCCSc1nc2ccc(OCC)cc2s1 [Compound 26, 6-ethoxy-2-(propylthio)benzothiazole] |  | only the resulting compound 25 was biologically active
CCOc1ccc2nc(SCC(CC)CC)sc2c1 [Compound 27, 6-ethoxy-2-((2-ethylbutyl)thio)benzothiazole] |  | only the resulting compound 25 was biologically active
CCOc1ccc2nc(SCC(OC)OC)sc2c1 [Compound 28, 2-((2,2-dimethoxyethyl)thio)-6-ethoxybenzothiazole] |  | only the resulting compound 25 was biologically active
CCCCSc1nc2ccc(OCC)cc2s1 [Compound 29, 2-(butylthio)-6-ethoxybenzothiazole] |  | only the resulting compound 25 was biologically active
